Experimental data taken from PubChem BioAssay AID1540 (National Center for Advancing Translational Sciences (NCATS), 2009).
Inconclusive results, whose numbers are uncertain, are shown with a selection of clear calls. A potency beside an inconclusive call is a rough fit, not a confirmed value. More than one record can exist for a structure, and the calls need not agree. The source made the active and inactive calls. Calls come from the whole dose curve; as a rule, active = well fitted activation curve with a large enough effect; inconclusive = small, poorly fitted or top-dose-only effect, or effect the other way; inactive = flat fitted curve, though single readings scatter.

Protein sequences, listed by entry. Tags and fused reporters are not part of them.
UniProt P14618, whole entry, looked up: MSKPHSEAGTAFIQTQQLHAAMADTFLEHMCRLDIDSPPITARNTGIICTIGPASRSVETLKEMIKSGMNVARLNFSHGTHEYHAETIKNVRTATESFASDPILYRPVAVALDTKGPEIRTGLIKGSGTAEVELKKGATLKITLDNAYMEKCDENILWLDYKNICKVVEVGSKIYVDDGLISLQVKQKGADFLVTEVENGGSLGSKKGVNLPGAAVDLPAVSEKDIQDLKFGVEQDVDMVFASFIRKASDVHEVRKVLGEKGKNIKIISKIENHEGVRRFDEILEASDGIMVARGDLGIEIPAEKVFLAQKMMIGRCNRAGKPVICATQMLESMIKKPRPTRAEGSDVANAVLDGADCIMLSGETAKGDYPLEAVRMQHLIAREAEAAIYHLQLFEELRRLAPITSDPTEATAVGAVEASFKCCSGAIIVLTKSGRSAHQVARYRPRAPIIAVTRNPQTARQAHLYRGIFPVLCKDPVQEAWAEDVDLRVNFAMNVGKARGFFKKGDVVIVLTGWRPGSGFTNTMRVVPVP

What follows are compounds tested against Pyruvate kinase PKM (Homo sapiens) (UniProt P14618) (assay: Secondary assay for Activators of Human Pyruvate Kinase M2 isoform). Conditions: purified hPK-M2, LDH-coupled NADH fluorescence kinetic; series mostly up to 57.5 µM.
Excerpt: Confirmatory assay NIH Chemical Genomics Center [NCGC] Matthew G. Vander Heiden, M.D., Ph.D. [Harvard Medical School, 77 Avenue Louis Pasteur, Boston, MA 02115] NCGC Assay Overview: Human pyruvate kinase muscle 2 (hPK-M2)enzyme was supplied as a highly purified (>95% pure) preparation from Harvard Medical School and a secondary assay was used to evaluate compounds. This assay couples the formation of pyruvate from hPK-M2 using lactate dehydrogenase (LDH) and NADH. The depletion of NADH is followed in a fluorescent-based kinetic assay that follows the formation of pyruvate to lactate, as catalyzed LDH (described by Hannaert et al., 2002)1 Pyruvate kinase substrates, PEP and ADP, were present in the assay at 0.1 mM and 4 mM respectively. In this kinetic assay initial rates were determined by following the fluorescence of NADH depletion.
NCGC Assay Protocol Summary: Three uL of substrate mix (final concentration, 50 mM Tris-Cl pH 8.0, 200 mM KCl, 15 mM MgCl2, 0.1 mM PEP, 4.0 mM ADP, and 0.2 mM NADH) was dispensed into black-solid 1536 well plates. 23 nL of compounds were delivered by a pin tool and 1 uL of enzyme mix (final concentrations, 10 nM hPK-M2 and 1 uM of LDH) was added. Plates were immediately placed in ViewLux (Perkin Elmer) and NADH fluorescence was determined at 30 second exposure intervals for between 3 and 6 minutes. Data were normalized to the uninhibited and EC100 activation using known activators such as fructose-bis-phosphate.
With `CNc1cccc(S(=O)(=O)N2CCN(S(=O)(=O)c3ccc4c(c3)OCCO4)CC2)c1` the Potency was “inactive”. For `Cc1ccc(Cn2ncc3c4sc(C)cc4n(C)c3c2=O)c(C)c1`, the Potency was active: 1.78 µM. In the case of `Nc1cc(S(=O)(=O)N2CCN(S(=O)(=O)c3ccc4c(c3)OCCO4)CC2)ccn1`, the Potency is reported as “inactive”. `O=C(O)/C=C/c1cc(F)c(S(=O)(=O)N2CCN(S(=O)(=O)c3ccc4c(c3)OCCO4)CC2)cc1F` was tested, and the Potency was inconclusive: 39.8 µM [rising, partial curve, poor fit]. In the case of `O=C(O)CCc1cc(F)c(S(=O)(=O)N2CCN(S(=O)(=O)c3ccc4c(c3)OCCO4)CC2)cc1F`, the Potency is reported as inconclusive: 31.6 µM [rising, partial curve, poor fit]. With `Cc1cc2c(s1)c1cnn(Cc3c(F)cccc3Cl)c(=O)c1n2C` the Potency was active: 0.158 µM. For `O=S(=O)(c1cccc(C(F)(F)F)c1)N1CCN(S(=O)(=O)c2ccc3c(c2)OCCO3)CC1`, the Potency was inconclusive: 2.82 µM [rising, partial curve, poor fit]. For `O=S(=O)(c1ccc2c(c1)OCCO2)N1CCN(S(=O)(=O)c2ccc3c(c2)OCCO3)CC1`, the Potency was active: 0.398 µM. In the case of `O=c1[nH]c2ccc(S(=O)(=O)N3CCN(S(=O)(=O)c4c(F)cccc4F)CC3)cc2[nH]c1=O`, the Potency is reported as inconclusive: 6.31e-05 µM [inhibitor, partial curve, poor fit]. `CCNc1cccc(S(=O)(=O)N2CCN(S(=O)(=O)c3ccc4c(c3)OCCO4)CC2)c1` was tested, and the Potency was “inactive”. With `CCOC(=O)/C=C/c1cc(F)c(S(=O)(=O)N2CCN(S(=O)(=O)c3ccc4c(c3)OCCO4)CC2)cc1F` the Potency was inconclusive: 44.7 µM [rising, partial curve, poor fit]. In the case of `CN(C)c1cccc(S(=O)(=O)N2CCN(S(=O)(=O)c3ccc4c(c3)OCCO4)CC2)c1`, the Potency is reported as “inactive”. For `Cc1cc2c(s1)c1cnn(Cc3ccc(S(C)(=O)=O)cc3)c(=O)c1n2C`, the Potency was inconclusive: 10 µM [rising, full curve]. For `COc1cccc(Cn2ncc3c4sc(B(O)O)cc4n(C)c3c2=O)c1`, the Potency was active: 17.8 µM. In the case of `COc1ccc(S(=O)(=O)N2CCN(S(=O)(=O)c3c(F)cccc3F)CC2)cc1`, the Potency is reported as “inactive”. For `O=c1[nH]c2ccc(S(=O)(=O)N3CCN(S(=O)(=O)c4ccc5c(c4)OCCO5)CC3)cc2[nH]c1=O`, the Potency was inconclusive: 0.141 µM [inhibitor, partial curve, poor fit]. `CC(=O)Nc1cccc(S(=O)(=O)N2CCN(S(=O)(=O)c3ccc4c(c3)OCCO4)CC2)c1` was tested, and the Potency was inconclusive: 0.461 µM [activator, full curve]. In the case of `O=S(=O)(NC1CCN(S(=O)(=O)c2c(F)cccc2F)C1)c1ccc2c(c1)OCCO2` (stereo not given), the Potency is reported as inconclusive: 14.1 µM [rising, partial curve]. For `Cc1cc2c(s1)c1cnn(-c3ccccc3)c(=O)c1n2C`, the Potency was inconclusive: 35.5 µM [rising, single point]. In the case of `CC(=O)Nc1cc2c(s1)c1cnn(Cc3ccccc3F)c(=O)c1n2C`, the Potency is reported as inconclusive: 14.1 µM [rising, full curve, poor fit]. In the case of `N#Cc1ccc(S(=O)(=O)N2CCN(S(=O)(=O)c3ccc4c(c3)OCCO4)CC2)cc1`, the Potency is reported as inconclusive: 0.447 µM [rising, full curve]. With `Cn1c2cc(B(O)O)sc2c2cnn(Cc3c(F)cccc3F)c(=O)c21` the Potency was inconclusive: 5.62 µM [rising, partial curve, poor fit]. `Cc1cc2c(s1)c1cnn(Cc3ccc(C(F)(F)F)cc3F)c(=O)c1n2C` was tested, and the Potency was inconclusive: 3.98 µM [rising, full curve, poor fit]. For `COc1cccc(Cn2ncc3c4sc(Br)cc4n(C)c3c2=O)c1`, the Potency was inconclusive: 14.1 µM [rising, full curve, poor fit]. For `CC(=O)Nc1ccc(S(=O)(=O)N2CCN(S(=O)(=O)c3c(F)cccc3F)CC2)cc1`, the Potency was inconclusive: 18.3 µM [rising, partial curve, poor fit]. With `Cn1c2cc(S(C)=O)sc2c2cnn(Cc3cccc(O)c3)c(=O)c21` (stereo not given) the Potency was inconclusive: 0.461 µM [activator, full curve]. In the case of `Cc1cc2c(s1)c1c(C)nn(Cc3ccccc3F)c(=O)c1n2C`, the Potency is reported as inconclusive: 22.4 µM [rising, full curve, poor fit]. In the case of `O=S(=O)(c1ccc2c(c1)OCCO2)N1CCN(S(=O)(=O)c2ccccn2)CC1`, the Potency is reported as active: 2.82 µM. With `Cc1cc2c(s1)c1cnn(Cc3ccccc3F)c(=O)c1n2Cc1ccccc1F` the Potency was inconclusive: 0.0112 µM [rising, full curve, poor fit]. `O=S(=O)(NC1CCN(S(=O)(=O)c2ccc3c(c2)OCCO3)C1)c1c(F)cccc1F` (stereo not given) was tested, and the Potency was inconclusive: 28.2 µM [rising, partial curve]. With `O=S(=O)(c1ccc2nc(Cl)c(Cl)nc2c1)N1CCN(S(=O)(=O)c2c(F)cccc2F)CC1` the Potency was inconclusive: 31.6 µM [rising, single point]. In the case of `Cn1c2cc(B(O)O)sc2c2cnn(Cc3ccc(F)cc3F)c(=O)c21`, the Potency is reported as inconclusive: 35.5 µM [rising, partial curve, poor fit]. For `Cc1cc2c(s1)c1cnn(Cc3ccccc3F)c(=O)c1n2C(C)C`, the Potency was inconclusive: 3.55 µM [rising, full curve, poor fit]. In the case of `Cc1ccc(C)c(OC2=NS(=O)(=O)c3ccccc32)c1`, the Potency is reported as “inactive”. For `Nc1cccc(S(=O)(=O)N2CCN(S(=O)(=O)c3ccc4c(c3)OCCO4)CC2)c1`, the Potency was active: 0.146 µM. For `Cn1c2ccsc2c2ncn(Cc3ccccc3F)c(=O)c21`, the Potency was inconclusive: 25.1 µM [rising, partial curve, poor fit]. With `Cc1cc2c(s1)c1cnn(Cc3ccc(-c4ccccc4)cc3)c(=O)c1n2C` the Potency was inconclusive: 5.62 µM [rising, partial curve]. In the case of `CS(=O)(=O)Nc1cccc(-c2cc(F)c(S(=O)(=O)N3CCN(S(=O)(=O)c4ccc5c(c4)OCCO5)CC3)cc2F)c1`, the Potency is reported as “inactive”. With `O=S(=O)(NCCNS(=O)(=O)c1c(F)cccc1F)c1ccc2c(c1)OCCO2` the Potency was “inactive”. With `O=S(=O)(c1ccc2c(c1)OCCO2)N1CCN(S(=O)(=O)c2ccc3nc(Cl)c(Cl)nc3c2)CC1` the Potency was inconclusive: 28.2 µM [rising, partial curve, poor fit].
